The campaign covered roughly 340,000 compounds. About 170 (0.05%) were called active. The inconclusive results got no clear call from the source; some entries with a clear call stand among them for comparison. Calls follow the shape of the dose curve; as a rule, active = well fitted inhibition curve with a large enough effect in the signal ratio, with a control signal flat (not every such curve was filed as active); inconclusive = small, poorly fitted or top-dose-only effect, or effect the other way, or a change in a side signal; inactive = flat fitted curve, though single readings scatter; the % refers to the signal ratio. A potency beside an inconclusive call is a rough fit, not a confirmed value.
Assay: qHTS Assay to Find Inhibitors of Chronic Active B-Cell Receptor Signaling;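 as to activity change, negative = inhibition: plate controls were basal doxycycline-induced cells for no effect and cells given 10 µM MG132 for full effect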
Settings: ABC-DLBCL IkBa-CBG/CBR reporter, luminescence ratio (green luciferase fused to IkBa over red control in TMD8 lymphoma cells), 4 h; activity change, negative = inhibition: at 46.1 µM (top of the series) unless noted
Method in brief: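 Doxycycline induced both beetle luciferases in TMD8 lymphoma cells; IKK-driven degradation limits the IkappaBalpha-fused green signal, while red luminescence normalises for cell number and nonspecific effects. Compounds tested up to 46 uM, 4 hrs.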
Potency is read from the fitted curve at half-maximal effect.

Row | Compound | activity change, negative = inhibition | Potency
1 | NC(=NCCc1c[nH]c2ccccc12)NC(=O)c1ccc(Cl)cc1 | inactive | 
2 | COc1cc2c(cc1OC)CN(C(=O)C1CCCN1S(=O)(=O)c1ccc(C)cc1)CC2 (configuration not stated) | inconclusive: 16.3% | 
3 | COc1ccc(/C=C2\SC(=S)N(CCC(=O)Nc3ccccc3C(=O)O)C2=O)cc1 |  | inconclusive: 4.47 µM [falling, partial curve]
4 | O=c1[nH]c(-c2ccc(Cl)cc2)cs1 | inconclusive: 4.14% | 
5 | Cc1cc(NS(=O)(=O)c2ccc(Nc3nc(-c4sc(C)nc4C)cs3)cc2)no1 | inconclusive: 9.54% | 
6 | COc1ccc2nc(C)cc(NCc3ccc(F)cc3)c2c1 | inconclusive: 13.9% | 
7 | Cc1nn(-c2ccccc2)c2c1C1(C(=O)N(C)c3ccccc31)C(C#N)=C(N)O2 (configuration not stated) | inconclusive: 1.29% | 
8 | NS(=O)(=O)c1ccc(NC(=S)NCc2ccc3c(c2)OCO3)cc1 |  | inconclusive: 22.4 µM [falling, single point]
9 | O=C(/C=C/c1ccco1)Nc1ccc(CN2CCOCC2)cc1 | inconclusive: -11% | 
10 | Cc1ccc(N(NC(=O)C(O)(c2ccccc2)c2ccccc2)C(=O)CCl)cc1 | inconclusive: -6.55% | 
11 | COc1ccc(/C=C/C(=O)NC(=S)Nc2cc3oc4ccccc4c3cc2OC)cc1 | inactive | 
12 | COc1ccc(NC(=O)C(CC(C)C)NC(=O)C2CCCCC2)c(OC)c1 (configuration not stated) | inactive | 
13 | CCc1nc2ccc(C(=O)NCCc3ccc(SC)cc3)cc2nc1CC | inactive | 
14 | Cc1noc(C)c1CSc1nc2ccccc2n1CCc1ccccc1 | inconclusive: -1.07% | 
15 | Oc1c(C(Nc2nccs2)c2ccc(C(F)(F)F)cc2)ccc2cccnc12 (configuration not stated) |  | inconclusive: 1.26 µM [falling, full curve, poor fit]
16 | CC(=O)CCC(=O)N1CCCC(N2CCN(c3cccc(Cl)c3)CC2)C1 (configuration not stated) | inconclusive: -0.912% | 
17 | O=C(NCCc1ccc2c(c1)OCCO2)c1cc(S(=O)(=O)N2CCCC2)ccc1Cl | inconclusive: 14% | 
18 | CN(C)c1ccc(/C=N/Nc2nc3ccccc3o2)cc1 |  | inconclusive: 25.1 µM [falling, single point]
19 | CCOC(=O)C1=C(C)N(CC(C)C)C(=O)C1 |  | inconclusive: 22.4 µM [falling, partial curve, poor fit]
20 | CCOC(=O)c1cc(C#N)c(Oc2ccccc2)nc1-c1ccccc1 |  | inconclusive: 0.82 µM [rising, full curve]
21 | CCCCOc1ccc(C(=O)Nc2ccc(S(=O)(=O)Nc3onc(C)c3C)cc2)cc1 | inconclusive: 1.05% | 
22 | Cc1ccc(-n2c(SCc3ccccc3F)nc3[nH]ncc3c2=O)cc1C |  | inconclusive: 20 µM [falling, single point]
23 | CCS(=O)(=O)N1Cc2ccccc2CC1C(=O)Nc1ccc(C)cc1 (configuration not stated) | inactive | 
24 | CC(Cc1cccs1)NC(=O)Nc1ccccc1 (configuration not stated) | inconclusive: -0.471% | 
25 | O=C(OCC(=O)N1N=C(c2ccc(Cl)cc2)CC1c1ccco1)c1cccnc1 (configuration not stated) |  | inconclusive: 10.3 µM [falling, single point]
26 | CCOC(=O)CN1C(=O)N(CC)C(C)=C(C(=O)OC)[C@@H]1c1ccccc1 | inconclusive: 6.43% | 

Random excerpt: 4 entries already listed.
Row | Compound | activity change, negative = inhibition | Potency
8 | NS(=O)(=O)c1ccc(NC(=S)NCc2ccc3c(c2)OCO3)cc1 |  | inconclusive: 22.4 µM [falling, single point]
10 | Cc1ccc(N(NC(=O)C(O)(c2ccccc2)c2ccccc2)C(=O)CCl)cc1 | inconclusive: -6.55% | 
16 | CC(=O)CCC(=O)N1CCCC(N2CCN(c3cccc(Cl)c3)CC2)C1 (configuration not stated) | inconclusive: -0.912% | 
25 | O=C(OCC(=O)N1N=C(c2ccc(Cl)cc2)CC1c1ccco1)c1cccnc1 (configuration not stated) |  | inconclusive: 10.3 µM [falling, single point]

Further compounds:

Row | Compound | activity change, negative = inhibition | Potency
27 | CCNC(=O)COC(=O)c1ccc(-c2nc3ccccc3s2)s1 | inconclusive: -11% | 
28 | CCc1c(O)nc(SCC(=O)Nc2nc3ccccc3s2)n(C2CCCCC2)c1=O |  | inconclusive: 8.91 µM [falling, partial curve]
29 | c1cc2c(cc1Nc1nc(-c3ccc4c(c3)OCO4)cs1)OCCO2 | inactive | 
30 | O=C(Cc1ccc(Cl)cc1)Nc1ccccn1 | inconclusive: 3.19% | 
31 | COc1cccc(OCc2nnc(-c3cccs3)o2)c1 |  | inconclusive: 11.2 µM [falling, single point]
32 | Cc1cc(C)cc(N2C(=O)c3nccnc3C2=O)c1 | inactive | 
33 | O=C(N[C@@H](Cc1c[nH]c2ccccc12)C(=O)O)C1CCN(S(=O)(=O)c2cccs2)CC1 | inactive | 
34 | c1ccc(CSc2ncn(-c3ccccc3)n2)cc1 |  | inconclusive: 35.5 µM [falling, single point]
35 | CC1CN(c2cc(=O)n(-c3ccccc3)c(=O)[nH]2)CC(C)O1 (configuration not stated) | inconclusive: 4.45% | 
36 | CC1=CC(=C(C#N)c2nc3ccccc3s2)C=C(C)N1Cc1ccco1 | inconclusive: 7.56% | 
37 | CCn1c(C)cc(/C=C2\NC(=O)N(CC(=O)Nc3ccc(F)cc3)C2=O)c1C | inconclusive: 2.35% | 
38 | C=CCSc1nnc2nc3c(nn12)c1cc(C)ccc1n3CC=C | inconclusive: -1.27% | 
39 | Oc1ccc(-c2nnc(Nc3ccccc3)c3ccccc23)cc1 |  | inconclusive: 15.8 µM [falling, single point]
40 | O=C(CSc1nc2c(c(=O)[nH]1)CN(Cc1ccc(F)cc1)CC2)Nc1ccc(F)cc1 | inconclusive: 2.29% | 
41 | Cc1ccc(-n2[nH]c(C)c(C=Nc3ccc4[nH]c(=O)[nH]c4c3)c2=O)cc1 | inactive | 
42 | Cc1ccc(S(=O)(=O)Cn2nnnc2C(c2ccc(F)cc2)N2CCC(C(N)=O)CC2)cc1 (configuration not stated) | inconclusive: 0.653% | 
43 | Oc1ccccc1C=Nc1ccccc1-c1nc2ccccc2[nH]1 | inconclusive: 13.7% | 
44 | O=C(NCC1CCCO1)c1cccc(NC(=O)c2cccs2)c1 (configuration not stated) | inconclusive: -22.2% | 
45 | C[C@]1(C(=O)NCCc2c[nH]c3ccccc23)C=C[C@@H](Cc2ccccc2)N1C(=O)c1ccccc1 | inconclusive: -7.17% | 
46 | COc1ccc(C(=O)NC2=C(C#N)CCC2)cc1OC | inconclusive: 10.7% | 
47 | O=C(Nc1nccs1)c1ccc2nccnc2c1 | inconclusive: -12.5% | 
48 | C/C(=N/NC(=O)c1ccc2nc[nH]c2c1)c1cccs1 | inconclusive: -4.81% | 
49 | Cc1ccc(NC(=O)CN2CCN(Cc3ccccc3)CC2)c(Br)c1 | inconclusive: 4.06% | 
50 | CCOc1ccccc1-n1c(SCC(=O)NC(C)(C)C)nnc1-c1ccoc1C | inconclusive: 1.08% | 
51 | COc1ccc(-c2csc3ncnc(N4CCN(c5ccc(OC)cc5)CC4)c23)cc1 | inactive | 
52 | CC(=O)Nc1ccc(NC(=O)C(C)OC(=O)CCCc2c[nH]c3ccccc23)cc1 (configuration not stated) | inconclusive: 2.36% | 

Source: PubChem BioAssay AID493014 (National Center for Advancing Translational Sciences (NCATS), 2011)
